Test results taken from the supplement of paper PMC3334620.
Whole data set: some 33,000 sequences, median “E-score (-0.5 to 0.5)” near -0.016, cut for the highest 2% near 0.3. The list shows a part of the results.

These sequences were tested against T1, Yer184c (UniProt P39961) (assay: PBM E-score (8-mer binding enrichment) (E-score (-0.5 to 0.5)); higher = stronger / more preferred TF binding). Details: protein concentration: 100 nM; construct: GST-full length.
T1 sequence: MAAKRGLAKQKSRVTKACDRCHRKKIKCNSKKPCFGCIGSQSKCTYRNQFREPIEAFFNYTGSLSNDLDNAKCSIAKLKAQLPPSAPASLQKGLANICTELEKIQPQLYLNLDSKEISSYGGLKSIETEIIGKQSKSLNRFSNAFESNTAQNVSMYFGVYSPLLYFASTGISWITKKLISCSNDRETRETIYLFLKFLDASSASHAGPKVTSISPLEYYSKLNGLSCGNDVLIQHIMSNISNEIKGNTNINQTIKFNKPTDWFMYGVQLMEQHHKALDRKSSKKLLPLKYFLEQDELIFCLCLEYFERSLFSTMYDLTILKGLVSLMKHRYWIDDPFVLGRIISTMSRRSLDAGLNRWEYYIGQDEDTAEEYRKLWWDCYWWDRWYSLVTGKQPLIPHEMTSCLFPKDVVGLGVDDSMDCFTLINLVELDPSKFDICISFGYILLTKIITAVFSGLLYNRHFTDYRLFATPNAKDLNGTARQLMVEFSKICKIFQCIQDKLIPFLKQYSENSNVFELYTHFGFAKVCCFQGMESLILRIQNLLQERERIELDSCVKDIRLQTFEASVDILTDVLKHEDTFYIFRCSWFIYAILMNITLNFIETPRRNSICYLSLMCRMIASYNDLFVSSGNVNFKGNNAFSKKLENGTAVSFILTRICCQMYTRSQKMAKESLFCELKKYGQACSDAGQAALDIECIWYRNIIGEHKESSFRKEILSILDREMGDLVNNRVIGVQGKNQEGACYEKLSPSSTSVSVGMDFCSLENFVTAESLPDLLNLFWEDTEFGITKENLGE
In short: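 Universal all-10-mer Agilent arrays, double-stranded by primer extension on fresh or once-stripped slides, were probed with about 100-200 nM GST-tagged yeast transcription factors made by PURExpress. Fluorescent anti-GST detected bound protein, and masliner normalised the scans. E-scores from the Universal PBM Analysis Suite were given to each ungapped eight-base word pooled with its reverse complement.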

Sequence | PBM E-score
CGCTGGAC | -0.187
AGTTTCAC | 0.0489
CAGTTGGG | -0.103
ATAATCGA | 0.0906
ACTTCCGC | 0.166
AGAGTGGG | -0.157
CAGTTCCC | 0.109
ACATTAAT | 0.164
CTTCAATC | 0.137
CGGAGGGC | -0.0123
CCGTTGGA | -0.096
AGAGAGAG | -0.267
AACCTAGC | -0.0338
GATTGTCA | 0.0895
ATAACCCA | 0.0142
TCCGACGA | 0.209
CAATTCCC | 0.178
CATTGCAC | -0.0423
TGCGTCAA | -0.0778
AGCTGTTA | -0.091
GTACAAGA | -0.0433
AGAACCCT | -0.127
CAAATAGA | 0.094
CTCCTAGA | -0.097
ATTGAGCA | -0.0211

Sequence | PBM E-score
AAGCTGTA | 0.0855
AAAATGAC | 0.114
ACCCTCGA | -0.211
CGTACCAA | 0.116
CTCTGTGA | 0.0767
ACCACGAA | -0.0436
ACGTGATG | -0.188
AAACAGCG | 0.0334
GTGGACGA | -0.155
AGAGCCGA | 0.26
AGCTTTCC | 0.134
ATCCGAAC | 0.261
AGGTGAGA | 0.0538
CTAGTACA | -0.018
GGCTATTA | 0.0181
AGGGAAGA | -0.12
AGCCGTCG | 0.0941
AAATACTG | -0.0439
ACTGCGCG | -0.125
CACGGAGG | 0.0399
CATACGGG | -0.0636
CAAGTATA | -0.232
ATGGCAGC | -0.279
AGGAAAAC | 0.0188
CTCACTGC | -0.0867

Sequence | PBM E-score
GACTATTA | 0.0882
TTTAAAAA | 0.169
CATGTAGG | 0.00826
ATGGATAA | 0.0299
ATAACGAT | -0.103
AGGGAATC | -0.243
ATAATACA | 0.27
CGAACAAC | 0.24
CGTCAGCC | 0.0845
GATGAACC | 0.00123
ATAGTCCG | 0.239
GATGGGCC | -0.0855
AGTCATAG | -0.226
TAAGAGAA | 0.0763
GATGGCTA | 0.0371
TGAACACA | 0.192
CCCTTTCG | -0.0672
AACTTCAC | 0.0811
AGTTCTAG | 0.0249
AGGCTAGC | -0.167
CAGCCAAG | -0.167
AACTGGGG | -0.217
ATGTAACG | 0.11
AAAGACAC | 0.125
ATACTACC | -0.126

Sequence | PBM E-score
GTTAGAGA | -0.0529
AATTCCCA | -0.123
AAACTAGA | -0.0867
CTCTACTC | -0.147
AGAACTTA | 0.218
CTTTCGAA | 0.0772
ATAGGTAC | -0.0746
AGACCATG | -0.263
ACCTAGGG | -0.105
AAACGTAA | -0.00968
ATATCACA | -0.0526
CAAGGGAC | -0.157
CACGGGTA | 0.0568
AGATGGTA | -0.0403
AGCGTCTG | -0.149
ACCCTTAG | -0.142
TATTCAGA | -0.0185
ATCGTTCC | 0.0025
CTGCTAAA | 0.0837
AGTTACAT | -0.113
GCGGGACA | -0.0021
CGTGGCGC | -0.165
AAAAAGCA | -0.0149
GAGTTCAC | 0.0324
TACCAATA | -0.126

Sequence | PBM E-score
AAAGGATG | -0.0484
AAAGTCAC | 0.118
CCACATAG | -0.14
TCACTACA | 0.14
CCCCCTAA | -0.312
CAGTAAGG | -0.0988
CTTAGCGC | 0.105
AAACGAAT | 0.0241
AGAACGAC | -0.0223
ACCGTGCT | -0.1
GGACCGCC | -0.149
CGCTCGAC | -0.304
TCGGATCA | 0.31
CTCCTGAC | -0.228
AGTATTGG | -0.141
CAGGTATG | -0.194
CCGAACTA | 0.323
CACGAGAC | -0.0174
ATTCAGAG | 0.0787
GTCGGTCA | -0.0435
ACGCCTAG | -0.244
CGGGTCAC | -0.0566
AAACGGTT | -0.118
CGTATCAG | -0.0101
AGAATCGA | 0.0425

Sequence | PBM E-score
AAAGTCCG | 0.217
AGACTGAA | 0.0583
CCCGTTCG | -0.0289
ACCTCCAT | -0.301
AACTTGGT | 0.0029
CCCGGACA | 0.283
ATCCAGCC | -0.0934
CTTATGTA | 0.149
TAACGTAA | 0.0251
ACACGCGA | 0.0183
TAGATTCA | -0.00116
GTGCGTCA | -0.0158
CAACTAGC | 0.0974
CTTTTAAC | -0.0576
GGTACGCA | 0.0222
GTGCCGTA | 0.16
CGGACAGA | 0.189
ACCGTTAG | -0.0187
AGCCAATG | -0.202
AATATGAC | 0.00386
CCTATTAA | 0.0417
ACTCGTGG | -0.128
CTCTCAGA | -0.159
CAGATAAC | 0.00569
GAGGAGGA | -0.262

Sequence | PBM E-score
CCCTGCCG | -0.0964
AATTATTG | 0.161
ACCGGTAA | 0.217
GTGTCGTA | -0.14
CCGCCAAC | -0.109
GTGAGAAA | 0.17
CCACGGGG | -0.0617
AAAGAGTT | -0.106
AAACAACC | 0.082
GTTAGAAA | 0.184
GCCGTACA | 0.148
CCCGCATA | 0.0386
AGAGAGGA | -0.219
ATTTCTGC | 0.205
CTTAAGCA | 0.131
GTCGAACA | 0.142
ACTTTGAA | 0.107
CAGTAGTC | -0.301
CACCGCTC | -0.0301
ATCACCAC | -0.00335
ATAAGGGC | -0.0697
AGGCAAAC | 0.0503

Some values from the entries so far:
Entry of AATATGAC under PBM E-score: 0.00386
Entry of ATCCAGCC under PBM E-score: -0.0934
Entry of CCCGTTCG under PBM E-score: -0.0289
Entry of CAAATAGA under PBM E-score: 0.094
